Data source: PubChem BioAssay AID1259424 (University of Nebraska Medical Center, 2018)
The deposit covers about 14,000 reagents; shown is a random part of them. 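Higher correlation or smaller distance means closer resemblance to KSR1 loss; control wells, including KSR1 knockdowns, recur on many plates.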 Not all columns of the deposit are shown. The record does not give: the time to read-out.

Assay: 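Rank knockdowns across the genome by resemblance to the KSR1 depletion profile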 (primary screen)
Cell system: human HCT116 colon cancer cells
Knock-down reagent: siRNA pool against human genes, 50 nM
Read-out: 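Six signature mRNAs by branched-DNA multiplex assay, scaled to two housekeeping genes and non-targeting median, log2; matched to mean KSR1 knockdown profile by Pearson correlation and euclidean distance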
Direction: mean correlation with KSR1 profile and KSR1 correlation: higher = expression change more like KSR1 knockdown; mean distance from KSR1 profile: higher = expression change less like KSR1 knockdown

target gene | mean correlation with KSR1 profile | mean distance from KSR1 profile | KSR1 correlation, replicate 1
ZNF667 | -0.424 | 2.49 | -0.507
SLC25A1 | -0.574 | 1.66 | -0.525
TMEM98 | 0.575 | 1.98 | 0.554
HSPA5 | 0.195 | 4.05 | 0.293
CHRAC1 | 0.558 | 3.5 | 0.636
TMEM191A | 0.416 | 1.39 | 0.281
FBXO3 | -0.488 | 2.47 | -0.603
AKAP12 | 0.295 | 1.57 | 0.282
SBF1 | -0.254 | 1.57 | -0.155
NIPSNAP3B | -0.751 | 2.33 | -0.613
CCDC30 | 0.393 | 1.59 | 0.259
EIF2A | 0.673 | 2.02 | 0.465
IL19 | 0.188 | 3.49 | 0.118
ACOT12 | 0.316 | 3.02 | -0.344
TFAP2D | 0.0116 | 1.76 | 0.354
ZNF19 | 0.077 | 3.04 | -0.0734
MAD1L1 | 0.322 | 2.18 | 0.426
PROKR2 | 0.68 | 3.17 | 0.724
H4C11 | 0.365 | 1.62 | 0.408
PSG2 | 0.231 | 1.37 | 0.234

Looked up above.
For “KSR1 correlation, replicate 1”, ACOT12 is entered as -0.344
Under “KSR1 correlation, replicate 1”, H4C11 has 0.408
